{
  "sequences": {"note": "Protein sequences, listed by entry. Tags and fused reporters are not part of them. Lines headed by an entry give the natural chain unless they say otherwise; changes in a name come on top.", "UniProt P48736, whole entry": "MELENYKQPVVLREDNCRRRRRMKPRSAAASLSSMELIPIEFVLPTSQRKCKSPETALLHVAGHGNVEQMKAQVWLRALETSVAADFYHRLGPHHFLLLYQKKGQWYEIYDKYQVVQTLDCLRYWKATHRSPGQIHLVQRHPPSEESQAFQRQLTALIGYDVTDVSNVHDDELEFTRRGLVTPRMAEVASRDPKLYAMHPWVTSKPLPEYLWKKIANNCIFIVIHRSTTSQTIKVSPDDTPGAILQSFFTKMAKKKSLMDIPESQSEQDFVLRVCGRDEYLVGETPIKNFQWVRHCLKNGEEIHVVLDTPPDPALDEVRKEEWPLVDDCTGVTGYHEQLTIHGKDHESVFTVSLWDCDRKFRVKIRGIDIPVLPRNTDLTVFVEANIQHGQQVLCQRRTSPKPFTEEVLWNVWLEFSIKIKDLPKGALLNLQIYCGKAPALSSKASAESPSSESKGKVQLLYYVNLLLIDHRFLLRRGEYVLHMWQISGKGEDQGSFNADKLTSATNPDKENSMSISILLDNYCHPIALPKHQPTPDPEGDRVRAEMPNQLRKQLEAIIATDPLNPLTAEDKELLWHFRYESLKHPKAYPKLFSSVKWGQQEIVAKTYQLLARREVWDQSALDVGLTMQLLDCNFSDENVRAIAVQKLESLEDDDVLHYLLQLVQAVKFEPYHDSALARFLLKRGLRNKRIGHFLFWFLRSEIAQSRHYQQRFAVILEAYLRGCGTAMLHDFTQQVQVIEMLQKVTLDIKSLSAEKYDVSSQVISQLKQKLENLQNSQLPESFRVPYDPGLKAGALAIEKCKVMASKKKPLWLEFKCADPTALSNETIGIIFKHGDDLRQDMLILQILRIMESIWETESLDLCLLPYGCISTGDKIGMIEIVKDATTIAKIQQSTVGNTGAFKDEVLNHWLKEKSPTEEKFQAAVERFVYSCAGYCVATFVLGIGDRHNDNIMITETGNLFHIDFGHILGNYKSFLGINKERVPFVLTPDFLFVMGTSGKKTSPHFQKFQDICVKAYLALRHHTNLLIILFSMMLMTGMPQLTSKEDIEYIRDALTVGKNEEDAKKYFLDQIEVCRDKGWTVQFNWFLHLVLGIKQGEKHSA", "UniProt P42338, whole entry": "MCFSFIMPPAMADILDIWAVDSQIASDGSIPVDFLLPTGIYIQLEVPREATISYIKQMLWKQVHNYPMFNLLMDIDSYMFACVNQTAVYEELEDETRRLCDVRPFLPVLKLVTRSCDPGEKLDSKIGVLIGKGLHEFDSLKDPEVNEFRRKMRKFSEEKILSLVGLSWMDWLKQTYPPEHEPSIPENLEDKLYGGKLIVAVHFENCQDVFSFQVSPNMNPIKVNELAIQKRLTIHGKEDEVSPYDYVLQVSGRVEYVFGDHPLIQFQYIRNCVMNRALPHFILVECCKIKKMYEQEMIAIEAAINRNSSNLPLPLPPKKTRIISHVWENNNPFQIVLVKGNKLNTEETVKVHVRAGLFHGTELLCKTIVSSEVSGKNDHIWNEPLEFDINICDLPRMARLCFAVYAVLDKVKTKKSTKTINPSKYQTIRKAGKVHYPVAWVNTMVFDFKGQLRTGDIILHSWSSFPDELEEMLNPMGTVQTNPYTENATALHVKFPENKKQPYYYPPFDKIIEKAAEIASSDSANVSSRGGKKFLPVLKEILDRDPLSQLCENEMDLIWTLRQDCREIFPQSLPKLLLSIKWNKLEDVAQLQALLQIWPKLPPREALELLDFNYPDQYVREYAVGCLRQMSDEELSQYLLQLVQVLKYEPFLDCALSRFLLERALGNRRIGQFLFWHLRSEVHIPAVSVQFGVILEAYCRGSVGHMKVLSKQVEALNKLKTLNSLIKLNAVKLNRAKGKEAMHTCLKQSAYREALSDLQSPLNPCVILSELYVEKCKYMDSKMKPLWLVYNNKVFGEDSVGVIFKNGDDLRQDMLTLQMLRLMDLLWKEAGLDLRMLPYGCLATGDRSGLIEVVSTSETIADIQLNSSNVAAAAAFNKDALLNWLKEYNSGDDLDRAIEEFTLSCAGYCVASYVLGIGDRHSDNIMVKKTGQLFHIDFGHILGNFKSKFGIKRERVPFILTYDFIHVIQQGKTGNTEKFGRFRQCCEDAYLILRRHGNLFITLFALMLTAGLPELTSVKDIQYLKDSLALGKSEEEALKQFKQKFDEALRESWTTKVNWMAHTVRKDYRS", "UniProt O00329, whole entry": "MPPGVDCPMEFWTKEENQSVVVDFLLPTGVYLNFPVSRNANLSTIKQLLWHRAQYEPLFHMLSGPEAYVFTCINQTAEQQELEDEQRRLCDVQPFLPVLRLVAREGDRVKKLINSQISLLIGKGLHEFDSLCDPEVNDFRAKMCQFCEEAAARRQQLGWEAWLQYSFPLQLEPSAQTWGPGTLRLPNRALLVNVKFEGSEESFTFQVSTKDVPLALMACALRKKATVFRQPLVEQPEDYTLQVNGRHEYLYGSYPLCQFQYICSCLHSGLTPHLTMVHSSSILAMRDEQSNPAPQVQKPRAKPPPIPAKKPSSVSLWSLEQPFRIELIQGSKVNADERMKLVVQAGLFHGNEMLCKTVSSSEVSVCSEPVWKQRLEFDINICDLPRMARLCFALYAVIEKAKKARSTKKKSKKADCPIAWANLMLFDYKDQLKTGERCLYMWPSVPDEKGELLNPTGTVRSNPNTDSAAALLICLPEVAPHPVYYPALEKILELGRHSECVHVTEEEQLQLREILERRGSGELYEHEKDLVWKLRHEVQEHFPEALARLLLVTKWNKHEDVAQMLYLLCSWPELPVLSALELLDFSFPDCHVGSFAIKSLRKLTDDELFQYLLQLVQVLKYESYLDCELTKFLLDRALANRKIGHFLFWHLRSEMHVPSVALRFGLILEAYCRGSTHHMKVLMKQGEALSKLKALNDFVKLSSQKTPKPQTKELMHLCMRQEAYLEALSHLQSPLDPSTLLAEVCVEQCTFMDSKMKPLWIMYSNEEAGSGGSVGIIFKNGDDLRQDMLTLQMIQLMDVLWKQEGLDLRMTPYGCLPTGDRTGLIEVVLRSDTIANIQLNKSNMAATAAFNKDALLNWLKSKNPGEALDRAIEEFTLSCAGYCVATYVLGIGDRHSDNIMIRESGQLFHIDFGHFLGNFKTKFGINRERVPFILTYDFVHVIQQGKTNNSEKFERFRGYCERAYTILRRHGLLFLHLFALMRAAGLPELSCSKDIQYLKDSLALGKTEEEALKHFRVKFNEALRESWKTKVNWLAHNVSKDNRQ"},
  "source": "patent US10894793B2",
  "about": "“Bicyclic pyridine, pyrazine, and pyrimidine derivatives as PI3K beta inhibitors” (Janssen Pharmaceutica NV, priority 2016, dated 2021)",
  "key": {"[1]": {"system": "Akt phosphorylated at Ser473 in PC-3 cells", "assay": "Cellular assay: phosphorylation of Akt (Ser473) in PC-3 cells, MSD ELISA", "settings": "read-out: IC50 pAkt_S473, 60 min compound incubation", "procedure": "(§1) Cellular activity of PI3Kβ inhibitors was determined by quantifying the phosphorylation of Akt in PC-3 cells. Akt phosphorylated at Ser473 and Thr308 were measured using an enzyme-linked immunosorbent assay (ELISA; Meso Scale Discovery (MSD), Gaithersburg, Md.) and specific primary antibodies from MSD.\n(§2) On day 1, PC3 cells (ATCC #[…]) were seeded into PerkinElmer MW96 plates at 25.000 cells per well, in 75 μl complete culture medium (DMEM high glucose, AQmedia™, D0819, Sigma-Aldrich) containing 10% heat inactivated FCS and incubated at 37° C., […] during 24 hours. On day 2, compound or DMSO (0.3%) was added and cells were further incubated for 60 min at 37° C., 5% CO2 in a total volume of 100 μl of medium. […]\n(§3) Briefly, at the end of the cell treatment period, media were removed by aspiration and adherent cells were lysed in 50 μl ice-cold lysis buffer. […] The signals were detected using an MSD SECTOR Imager 6000 and are proportional to the phospho-Akt titres.\n(§4) Data were processed. The percentage of inhibition was plotted against the log concentration of test compounds, and the sigmoidal log concentration-effect curve of best fit was calculated by nonlinear regression analysis. From these concentration-response curves, the IC50 values were calculated. […]"}, "[2]": {"system": "Akt phosphorylated at Thr308 in PC-3 cells", "assay": "Cellular assay: phosphorylation of Akt (Thr308) in PC-3 cells, MSD ELISA", "settings": "read-out: IC50 pAkt_Thr308, 60 min compound incubation", "procedure": "as §1, §2, §3, §4"}, "[3]": {"target": "PIK3Cγ_h (Homo sapiens, UniProt P48736)", "assay": "Enzyme binding assay (KINOMEscan)", "settings": "read-out: Kd PIK3Cγ_h, DiscoveRx", "procedure": "(§5) Enzyme Binding Assays (KINOMEscan®)\n(§6) Kinase enzyme binding affinities of compounds disclosed herein were determined using the KINOMEscan technology performed by DiscoveRx Corporation, San Diego, Calif., USA (www.kinomescan.com). Table A reports the obtained Kd values (nM), with the Kd being the inhibitor binding constant: […]"}, "[4]": {"target": "PIK3Cα_h (Homo sapiens, UniProt P42336)", "assay": "Enzyme binding assay (KINOMEscan)", "settings": "read-out: Kd PIK3Cα_h, DiscoveRx", "procedure": "as §5, §6"}, "[5]": {"target": "PIK3Cβ_h (Homo sapiens, UniProt P42338)", "assay": "Enzyme binding assay (KINOMEscan)", "settings": "read-out: Kd PIK3Cβ_h, DiscoveRx", "procedure": "as §5, §6"}, "[6]": {"target": "PIK3Cδ_h (Homo sapiens, UniProt O00329)", "assay": "Enzyme binding assay (KINOMEscan)", "settings": "read-out: Kd PIK3Cδ_h, DiscoveRx", "procedure": "as §5, §6"}, "[7]": {"target": "MTOR_h (Homo sapiens, UniProt P42345)", "assay": "Enzyme binding assay (KINOMEscan)", "settings": "read-out: Kd MTOR_h, DiscoveRx", "procedure": "as §5, §6"}},
  "note": "The structures given here were assigned with low confidence; some may be wrong.",
  "data": [
    {"smiles": "Cc1c(Cc2c(CO)nc3ccc(N4CCOCC4)cn23)cccc1C(F)(F)F", "values": [
      {"measurement": "IC50", "setting": "[1]", "value": 182, "unit": "nM"},
      {"measurement": "IC50", "setting": "[2]", "value": 83, "unit": "nM"},
      {"measurement": "Kd", "setting": "[3]", "value": 17000, "unit": "nM"},
      {"measurement": "Kd", "setting": "[4]", "value": 5370, "unit": "nM"},
      {"measurement": "Kd", "setting": "[5]", "value": 13, "unit": "nM"},
      {"measurement": "Kd", "setting": "[6]", "value": 794, "unit": "nM"},
      {"measurement": "Kd", "setting": "[7]", "value": 17800, "unit": "nM"}
    ]}
  ]
}
